For 4 molecules, binding results are on record in publication PMC3006391.

Amino acid sequences for entries named in this document (tags omitted).
UniProt Q07817: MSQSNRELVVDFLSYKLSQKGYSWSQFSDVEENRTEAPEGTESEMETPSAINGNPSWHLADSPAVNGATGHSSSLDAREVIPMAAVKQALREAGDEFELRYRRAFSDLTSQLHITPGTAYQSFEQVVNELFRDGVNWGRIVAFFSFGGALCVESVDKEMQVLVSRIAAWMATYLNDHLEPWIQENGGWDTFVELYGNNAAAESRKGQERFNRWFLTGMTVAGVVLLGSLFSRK

The target in one test is TAP-Bcl-xL (UniProt Q07817). The experiment in a line: affinity purification with mass spectrometry; Tandem Affinity Purification from CHAPS (1%) extracts of total membranes of HeLa cells stably expressing TAP-Bcl-xL: IgG agarose, TEV cleavage, calmodulin resin, EGTA elution; most abundant Coomassie bands cut and identified by LC-MS/MS; TAP-stop cells as control.
Another test has as its target TAP-Bcl-xL, Q07817. The description is as above. The following applies: remark: other sources report otherwise.

No constants are given. Whether binding was seen depends on the method and setting. Binding seen in cells or lysates may run through a third protein. These calls come from enrichment with a bait or labelling near it, and not all partners need be listed.

B1: CDGSH iron sulfur domain 2 (protein, UniProt Q8N5K1 1-135)
chain: MVLESVARIVKVQLPAYLKRLPVPESITGFARLTVSEWLRLLPFLGVLALLGYLAVRPFLPKKKQQKDSLINLKIQKENPKVVNEINIEDLCLTKAAYCRCWRSKTFPACDGSHNKHNELTGDNVGPLILKKKEV
Regarding B1, the binding entry with TAP-Bcl-xL is recorded as “binds”.

B2: ATP synthase OSCP subunit, P48047 24-213 (protein)
chain: FAKLVRPPVQVYGIEGRYATALYSAASKQNKLEQVEKELLRVAQILKEPKVAASVLNPYVKRSIKVKSLNDITAKERFSPLTTNLINLLAENGRLSNTQGVVSAFSTMMSVHRGEVPCTVTSASPLEEATLSELKTVLKSFLSQGQVLKLEAKTDPSILGGMIVRIGEKYVDMSVKTKIQKLGRAMREIV
Regarding B2, the binding entry in the test with TAP-Bcl-xL, Q07817 is listed as “binds”.

B3: ATP synthase gamma chain, P36542-1 26-298 (protein)
chain: ATLKDITRRLKSIKNIQKITKSMKMVAAAKYARAERELKPARIYGLGSLALYEKADIKGPEDKKKHLLIGVSSDRGLCGAIHSSIAKQMKSEVATLTAAGKEVMLVGIGDKIRGILYRTHSDQFLVAFKEVGRKPPTFGDASVIALELLNSGYEFDEGSIIFNKFRSVISYKTEEKPIFSLNTVASADSMSIYDDIDADVLQNYQEYNLANIIYYSLKESTTSEQSARMTAMDNASKNASEMIDKLTLTFNRTRQAVITKELIEIISGAAALD
On to B3, for which the binding entry with TAP-Bcl-xL, Q07817 is given as “binds”.

B4: ATP synthase b subunit, P24539 43-256 (protein)
chain: PVPPLPEYGGKVRYGLIPEEFFQFLYPKTGVTGPYVLGTGLILYALSKEIYVISAETFTALSVLGVMVYGIKKYGPFVADFADKLNEQKLAQLEEAKQASIQHIQNAIDTEKSQQALVQKRHYLFDVQRNNIAMALEVTYRERLYRVYKEVKNRLDYHISVQNMMRRKEQEHMINWVEKHVVQSISTQQEKETIAKCIADLKLLAKKAQAQPVM
For the molecule B4, the binding result in the test with TAP-Bcl-xL, Q07817 is given as “binds”.
